Data reported in BindingDB's records for doi:10.1007/s00210-004-0951-4 (Vernalis Research, 2004).

Protein sequences, listed by entry. Tags and fused reporters are not part of them.
UniProt P41595, whole entry: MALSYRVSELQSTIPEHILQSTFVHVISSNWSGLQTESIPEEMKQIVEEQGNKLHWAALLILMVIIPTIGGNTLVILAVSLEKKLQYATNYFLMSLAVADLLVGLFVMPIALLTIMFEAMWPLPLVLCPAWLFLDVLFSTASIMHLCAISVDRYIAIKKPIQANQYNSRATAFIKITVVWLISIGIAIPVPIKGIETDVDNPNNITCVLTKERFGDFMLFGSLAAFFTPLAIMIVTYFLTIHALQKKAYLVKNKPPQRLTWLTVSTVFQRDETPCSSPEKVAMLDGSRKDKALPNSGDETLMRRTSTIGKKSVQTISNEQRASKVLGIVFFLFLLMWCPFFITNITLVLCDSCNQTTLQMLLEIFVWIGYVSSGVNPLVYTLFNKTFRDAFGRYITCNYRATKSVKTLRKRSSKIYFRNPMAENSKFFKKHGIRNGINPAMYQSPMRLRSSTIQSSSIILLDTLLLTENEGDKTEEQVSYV

Biological target: 5-hydroxytryptamine receptor 2B (Homo sapiens, UniProt P41595)

Compound: CC[C@@H](CO)NC(=O)[C@@H]1C=C2c3cccc4c3c(cn4C)C[C@H]2N(C)C1
- Ki: 0.36 nM
